Reference: PubChem BioAssay AID1347075 (National Center for Advancing Translational Sciences (NCATS), 2019)
Hit rate of the full screen: of about 400,000 compounds, about 5,500 (1.4%) were called active. The shares of active, inactive and inconclusive entries below differ from those in the screen. Calls come from the whole dose curve; as a rule, active = well fitted cell-killing curve with a large enough effect; inconclusive = small, poorly fitted or top-dose-only effect, or effect the other way; inactive = flat fitted curve, though single readings scatter. Potencies of inconclusive entries are doubtful fits and often do not repeat.

Assay: qHTS assay for MDR1-selective chemotherapeutics: Primary screen using the parental adenocarcinoma cell KB-3-1; note: nearly all actives have a fitted effect of over 60% in size
Details: KB-3-1 viability, CellTiter-Glo ATP luminescence, 72 h; activity change, negative = cytotoxic: at 46.1 µM (top of the series)
Summary of the method: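 Parental KB-3-1 adenocarcinoma cells in phenol-red-free DMEM with 10% FBS were pin-treated with compounds at several concentrations, incubated 72 h at 37 °C, and viability read by CellTiter-Glo luminescence; concentration-effect curves were fitted after normalization.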
% is set by controls: 0 for no effect and ±100 for the full control effect; potency is the fitted concentration of half-maximal effect.

**Q.** With `CCOC(=O)c1c(-c2ccc(C)o2)csc1NC(=S)NC(=O)N(C)C` as the compound, how does the Potency read?
**A.** inactive

**Q.** Which Potency does the source give for `CN(CC(=O)Nc1ccc(F)cc1)C(=O)c1cccc(S(=O)(=O)N2CCN(c3ccccc3)CC2)c1` here?
**A.** inconclusive: 16.4 µM [cytotoxic, single point]

**Q.** With `Cc1ccccc1C(=O)N1CCC(C(=O)Nc2ccc3c(c2)OCO3)CC1` as the compound, how does the Potency read?
**A.** inactive

**Q.** Which Potency does the source give for `O=[N+]([O-])c1ccc(-c2nc(C(Cl)Cl)c3ccccc3n2)cc1` here?
**A.** active: 13 µM

**Q.** With `CC[n+]1c(/C=C2\Sc3ccccc3N2C)ccc2cccc(C)c21` as the compound, how does the Potency read?
**A.** active: 0.461 µM

**Q.** Which Potency does the source give for `COc1cccc(CCN2CCC(CNS(=O)(=O)c3cc(-c4cc(C)no4)ccc3OC)CC2)c1` here?
**A.** inconclusive: 20.6 µM [cytotoxic, partial curve, poor fit]

**Q.** Which Potency does the source give for `CCN1C(=O)[C@@H]2[C@@H](c3ccc(-c4ccc(C(C)=O)cc4)c(OC)c3)N3CCCC[C@@]3(C(=O)OC)[C@@H]2C1=O` here?
**A.** inconclusive: 18.4 µM [cytotoxic, single point]

**Q.** Which Potency does the source give for `O=S(=O)(c1ccccc1)N1CCN(Cc2ccc(Cl)cc2)CC1` here?
**A.** inactive

**Q.** For `Cc1ccccc1C(=O)N1CCN(c2ccc(NC(=S)NC(=O)c3cccs3)cc2)CC1`, which Potency is on record?
**A.** inconclusive: 23.1 µM [cytotoxic, single point]

**Q.** With `O=C(OCc1ccccc1)N1CCC2CC1c1ccc(N3CCNCC3)cc12` (centres undefined) as the compound, how does the Potency read?
**A.** inactive

**Q.** With `Nc1ncn([C@@H]2O[C@H](CO)[C@@H](O)[C@H]2O)c(=O)n1` as the compound, how does the Potency read?
**A.** inconclusive: 29.1 µM [cytotoxic, single point]

**Q.** With `O=C1NC(Cc2ccccc2)c2nc3ccc(F)cc3c(=O)n2-c2cc3ccccc3cc21` (centres undefined) as the compound, how does the Potency read?
**A.** inconclusive: 23.1 µM [cytotoxic, single point]

**Q.** With `CCn1c(-c2ccc(C)cc2)n[nH]c1=S` as the compound, how does the Potency read?
**A.** inconclusive: 23.1 µM [cytotoxic, single point]

**Q.** For `COc1cc(CN2C[C@@H](CO)O[C@@H](n3cnc4c(NC5CC5)ncnc43)C2)cc(OC)c1OC`, which Potency is on record?
**A.** inactive

**Q.** Which Potency does the source give for `Clc1ccccc1CSc1nnc(-c2ccccn2)n1Cc1ccco1` here?
**A.** inconclusive: 29.1 µM [cytotoxic, single point]

**Q.** Which Potency does the source give for `CC(=O)c1ccc(OC2(C)CCN(Cc3csc4ccccc34)C2)cc1` (centres undefined) here?
**A.** inactive

**Q.** For `CCN(CC(=O)NCc1cccs1)C(=O)c1ccc(-c2ccc(F)cc2)o1`, which Potency is on record?
**A.** inconclusive: 29.1 µM [cytotoxic, single point]

**Q.** For `Cc1ccc(S(=O)(=O)N(Cc2cc3ccccc3[nH]c2=O)c2cccc(C)c2)cc1`, which Potency is on record?
**A.** inactive

**Q.** For `Cc1c(C(=O)NCC2COc3ccccc3O2)oc2ccc(S(=O)(=O)N3CCOCC3)cc12` (centres undefined), which Potency is on record?
**A.** inconclusive: 29.1 µM [cytotoxic, single point]

**Q.** Which Potency does the source give for `Clc1cc(Br)ccc1OCCCn1ccnc1` here?
**A.** inconclusive: 20.6 µM [cytotoxic, single point]

**Q.** Which Potency does the source give for `CSc1ccc(CN2C(=O)C(F)(F)Oc3c(C(C)=O)cccc32)cc1` here?
**A.** inconclusive: 29.1 µM [cytotoxic, single point]

**Q.** For `CCOc1ccc(-c2[nH]ncc2-c2ccc(Cl)cc2)c(O)c1`, which Potency is on record?
**A.** inactive

**Q.** Which Potency does the source give for `C=CCC(=O)NC1CC(C)(C)Cc2c1cnn2-c1ccccc1C` (centres undefined) here?
**A.** inconclusive: 0.206 µM [cytotoxic, full curve]

**Q.** Which Potency does the source give for `O=C(c1ccc(Br)o1)N1CCN(c2ccc3nnc(-c4ccc(F)cc4)n3n2)CC1` here?
**A.** inconclusive: 25.9 µM [rising, single point]

**Q.** For `O=C(O)c1cscc1-c1cccc2ccccc12`, which Potency is on record?
**A.** inconclusive: 20.6 µM [cytotoxic, partial curve, poor fit]

**Q.** For `Cc1nnc2c3ccccc3c(-c3ccc(O)cc3)nn12`, which Potency is on record?
**A.** inconclusive: 32.6 µM [cytotoxic, single point]

**Q.** For `O=C(NC(Cc1c[nH]c2ccccc12)c1nnc2n1CCCCC2)c1ccc(Cl)cc1` (centres undefined), which Potency is on record?
**A.** inconclusive: 20.6 µM [cytotoxic, single point]

**Q.** For `COc1ccc(C(=O)NNC(=O)C(NC(=O)c2ccccc2NC(=O)c2ccco2)C(C)C)cc1` (centres undefined), which Potency is on record?
**A.** inconclusive: 29.1 µM [rising, single point]

**Q.** With `CCCN(CC(=O)Nc1ccccc1C)C(=O)CCN1C(=O)c2cccc([N+](=O)[O-])c2C1=O` as the compound, how does the Potency read?
**A.** inactive

**Q.** With `COc1cc(C(=O)NNC(=S)NC(=O)c2ccc(Cl)cc2)cc(OC)c1OC` as the compound, how does the Potency read?
**A.** inconclusive: 29.1 µM [cytotoxic, single point]

**Q.** With `O=C(CCN1C(=O)/C(=C/c2ccccc2F)SC1=S)N[C@@H](CO)Cc1ccccc1` as the compound, how does the Potency read?
**A.** inconclusive: 29.1 µM [cytotoxic, single point]

**Q.** With `COc1ccc(-c2n[nH]c3c2CN(C(=O)c2ccc(OC)c(OC)c2)CC3)cc1` as the compound, how does the Potency read?
**A.** active: 7.31 µM

**Q.** For `Cc1cccc(N=N/C(=C\O)C(=O)c2ccc(Br)cc2)c1`, which Potency is on record?
**A.** inconclusive: 29.1 µM [cytotoxic, single point]

**Q.** For `O=C(NCCN1CCC(n2c(=O)[nH]c3ccccc32)CC1)c1ccc(Cl)c(Cl)c1`, which Potency is on record?
**A.** inconclusive: 20.6 µM [cytotoxic, single point]

**Q.** For `CCOc1ccc(NS(=O)(=O)c2ccc(C(=O)N3CCCCC3)cc2)cc1`, which Potency is on record?
**A.** inconclusive: 29.1 µM [cytotoxic, single point]

**Q.** With `CCN(CC)CCCNC(=O)c1cc2c(=O)n(CC)c3ccccc3c2s1` as the compound, how does the Potency read?
**A.** inconclusive: 20.6 µM [cytotoxic, single point]

**Q.** For `O=C(CCC(=O)N(CC(=O)NC1CCCC1)Cc1ccccc1)Nc1nccs1`, which Potency is on record?
**A.** inconclusive: 29.1 µM [rising, single point]

**Q.** Which Potency does the source give for `CC(/C=C/c1ccccc1)=N/NC(=O)c1cc([N+](=O)[O-])cc([N+](=O)[O-])c1` here?
**A.** inconclusive: 20.6 µM [rising, single point]

**Q.** With `CC(=O)c1ccc2c(c1)CC1(C2)Cc2cc3c(cc2C1)C(=O)CC3` (centres undefined) as the compound, how does the Potency read?
**A.** active: 3.66 µM

**Q.** Which activity change, negative = cytotoxic does the source give for `O=C(Cc1ccc(Br)cc1)N1CCCCCC1` here?
**A.** inconclusive: 6.49%

**Q.** With `O=S(=O)(c1ccc(Br)cc1F)N1CC[C@H](O)C1` as the compound, how does the Potency read?
**A.** inactive

**Q.** For `CC(C)CCNC(=O)C(=O)Nc1cc2c3c(c1)CCC(=O)N3CCC2`, which Potency is on record?
**A.** inactive

**Q.** With `OC[C@@H]1[C@@H](c2ccc(F)cc2)C(c2cccc(Cl)c2)=NN1c1ccccc1` as the compound, how does the Potency read?
**A.** inconclusive: 29.1 µM [cytotoxic, single point]

**Q.** Which Potency does the source give for `COc1ccc(S(=O)(=O)Nc2noc3ccccc23)cc1OC` here?
**A.** inconclusive: 29.1 µM [cytotoxic, single point]

**Q.** With `COc1cc(CNCCO)ccc1OCC(=O)Nc1ccc(Br)cc1` as the compound, how does the Potency read?
**A.** inconclusive: 20.6 µM [cytotoxic, single point]

**Q.** With `Cc1cc(C)c2nc3sc(C(=O)N4CCOCC4)c(N)c3cc2c1` as the compound, how does the Potency read?
**A.** active: 0.259 µM

**Q.** With `Cc1cc(/C=C2\SC(=Nc3ccc(F)cc3)NC2=O)c(C)n1-c1ccc(S(N)(=O)=O)cc1` as the compound, how does the Potency read?
**A.** active: 6.51 µM

**Q.** For `O=C(C/C=N/OCc1c(Cl)cccc1Cl)c1cnc(-c2ccccc2)s1`, which Potency is on record?
**A.** inactive

**Q.** With `COc1cccc(C(=O)NNC(=O)C(=O)Nc2ccc(C)cc2)c1` as the compound, how does the Potency read?
**A.** inactive

**Q.** With `O=C(Nc1ccc2[nH]c3c(c2c1)CCCC3)c1ccco1` as the compound, how does the Potency read?
**A.** inconclusive: 16.4 µM [cytotoxic, single point]

**Q.** Which activity change, negative = cytotoxic does the source give for `O=C(O)c1ccc(NC(=O)c2cc3c([nH]c2=O)CCCC3=O)cc1` here?
**A.** inconclusive: 12.3%

**Q.** Which Potency does the source give for `COc1ccc(CCNC(=O)/C(C#N)=C/c2cccc(OCc3ccccc3)c2)cc1OC` here?
**A.** inconclusive: 14.6 µM [cytotoxic, single point]

**Q.** For `CC1c2ccccc2N(S(=O)(=O)c2ccccc2)C1C` (centres undefined), which Potency is on record?
**A.** inactive

**Q.** With `CN1CCN(C(=O)c2ccc3c(c2)N(Cc2ccc(C(F)(F)F)cc2)C(=O)c2ccccc2S3)CC1` as the compound, how does the Potency read?
**A.** inconclusive: 23.1 µM [cytotoxic, partial curve, poor fit]

**Q.** For `COCCCn1c(C(=O)NCCN2CCOCC2)cc2c(=O)n3cccc(C)c3nc21`, which Potency is on record?
**A.** inconclusive: 23.1 µM [rising, single point]

**Q.** For `O=C(O)c1ccc(CSCc2ccccc2)o1`, which Potency is on record?
**A.** inconclusive: 0.0164 µM [rising, full curve]

**Q.** Which Potency does the source give for `CC(=O)c1ccc(-c2ccc(C(=O)Nc3nc(-c4ccccn4)cs3)o2)cc1` here?
**A.** inconclusive: 16.4 µM [cytotoxic, single point]

**Q.** For `CCOC(=O)[C@H]1[C@H]2COc3ccc(Cl)cc3[C@@H]2N2C(=O)CN(Cc3ccc(Cl)cc3)C(=O)[C@@]12C`, which Potency is on record?
**A.** inconclusive: 29.1 µM [cytotoxic, single point]

**Q.** For `CCc1nnc(NC(=O)CSc2nnc(-c3ccccc3O)n2-c2ccc(C)cc2C)s1`, which Potency is on record?
**A.** inconclusive: 23.1 µM [cytotoxic, single point]

**Q.** For `COCC1CCN(Cc2cn[nH]c2-c2ccc(OC)cc2F)C1` (centres undefined), which Potency is on record?
**A.** inconclusive: 29.1 µM [rising, single point]

**Q.** With `O=C(O)C1CCN(C(=O)CSc2nc3ccccc3s2)CC1` as the compound, how does the Potency read?
**A.** inactive

**Q.** With `CCc1c(C)nc2ncnn2c1N1CCCC(C(=O)Nc2cc(F)ccc2C)C1` (centres undefined) as the compound, how does the Potency read?
**A.** inactive

**Q.** For `CC(=O)c1cccc(OCC(=O)N(CCC2=CCCCC2)c2c(N)n(Cc3ccccc3)c(=O)[nH]c2=O)c1`, which Potency is on record?
**A.** inconclusive: 29.1 µM [cytotoxic, partial curve, poor fit]

**Q.** Which Potency does the source give for `COc1cc(C(=O)N/N=C/c2sccc2C)cc(OC)c1OC` here?
**A.** active: 0.651 µM

**Q.** Which Potency does the source give for `COc1cc(NC(=O)c2ccc(C)cc2C)ccc1NC(=O)c1cc2ccccc2o1` here?
**A.** inconclusive: 18.4 µM [cytotoxic, single point]

**Q.** Which Potency does the source give for `O=C(COc1c(Br)cc(Br)c2cccnc12)N1CCCCC1` here?
**A.** inactive

**Q.** For `O=C(CN(C(=O)c1ccccc1Cl)N1C(=O)CCCC1=O)c1ccc(Cl)cc1`, which Potency is on record?
**A.** inactive

**Q.** For `Cc1ccc(-n2ncc(C(=O)NCc3ccc4c(c3)OCO4)c2C2CCN(C(=O)OC(C)(C)C)CC2)c(C)c1`, which Potency is on record?
**A.** inactive

**Q.** For `COc1cc(C(=O)NCCCNc2nc3cc(C)c(C)cc3cc2C#N)cc(OC)c1OC`, which Potency is on record?
**A.** inactive
